Data: article PMC5095800, “A standardized production pipeline for high profile targets from Mycobacterium tuberculosis” (Proteomics. Clinical Applications, 2016)
No constants are given. Whether binding was seen depends on the method and setting.

Chains of the proteins cited; added tags and fusions are not shown. Lines headed by an entry give the natural chain unless they say otherwise; changes in a name come on top. Residues count along the entry.
UniProt P9WGU1, 24-374, stated change not applied: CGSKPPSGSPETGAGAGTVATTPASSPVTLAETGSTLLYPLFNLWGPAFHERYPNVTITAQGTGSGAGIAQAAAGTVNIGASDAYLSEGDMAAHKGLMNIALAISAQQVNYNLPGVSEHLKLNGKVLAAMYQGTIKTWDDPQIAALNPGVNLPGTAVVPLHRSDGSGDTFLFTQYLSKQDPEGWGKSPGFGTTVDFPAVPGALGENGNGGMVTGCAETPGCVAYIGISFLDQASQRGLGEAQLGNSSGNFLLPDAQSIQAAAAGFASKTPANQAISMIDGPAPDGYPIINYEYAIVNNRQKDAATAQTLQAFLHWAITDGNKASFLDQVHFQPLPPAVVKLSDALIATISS

Columns and labels:
[1] = target: Phosphate-specific transport substrate-binding protein-1 (PstS1), construct PstS1Δ24 (Mycobacterium tuberculosis H37Rv) (UniProt P9WGU1); assay: SEC; both purified
[2] = target: heterodimeric complex of EsxB and EsxA (EsxBA) (Mycobacterium tuberculosis H37Rv) (UniProt P9WNK5); assay: SEC; both purified

| Substance | binding [1] | binding [2] |
| --- | --- | --- |
| Phosphate-specific transport substrate-binding protein-1 (PstS1), construct PstS1Δ24 (from UniProt P9WGU1 24-374) | no binding | – |
| heterodimeric complex of EsxB and EsxA (EsxBA) (from UniProt P9WNK5;P9WNK7) | – | no binding |
